Results on one substance are retold here after paper PMC5414350.

For the test, the target named is Ms2 (=PG5_(P1593S)) protein (Triticum aestivum (common wheat)). Description: two-hybrid; pairwise yeast two-hybrid with AD (pGADT7) and BD (pGBKT7) fusions; DDO, TDO and QDO media.

No constants are given. Whether binding was seen depends on the method and setting. Some results given as binding are weak or reduced against the parent protein; the word gives no strength.

As for “Ms2 (=PG5_(P1593S)) protein (from UniProt A0A1D5Y5U2 1-293)”, the binding entry is “binds”.
